{"source": "paper PMC5667506", "about": "(Chemical Science, 2015)", "experiment": "general procedure: Fmoc solid-phase peptide synthesis; Rink amide MBHA resin (AAPPTEC)", "settings": "late stage modification step", "data": [{"substance": "AcVELARRPLPPLPN-NH2", "values": [{"measurement": "step yield", "value": 73, "unit": "%"}]}]}
